Some of the results follow.

Protein sequences, listed by entry. Tags and fused reporters are not part of them. Lines headed by an entry give the natural chain unless they say otherwise; changes in a name come on top.
UniProt Q9BQS7: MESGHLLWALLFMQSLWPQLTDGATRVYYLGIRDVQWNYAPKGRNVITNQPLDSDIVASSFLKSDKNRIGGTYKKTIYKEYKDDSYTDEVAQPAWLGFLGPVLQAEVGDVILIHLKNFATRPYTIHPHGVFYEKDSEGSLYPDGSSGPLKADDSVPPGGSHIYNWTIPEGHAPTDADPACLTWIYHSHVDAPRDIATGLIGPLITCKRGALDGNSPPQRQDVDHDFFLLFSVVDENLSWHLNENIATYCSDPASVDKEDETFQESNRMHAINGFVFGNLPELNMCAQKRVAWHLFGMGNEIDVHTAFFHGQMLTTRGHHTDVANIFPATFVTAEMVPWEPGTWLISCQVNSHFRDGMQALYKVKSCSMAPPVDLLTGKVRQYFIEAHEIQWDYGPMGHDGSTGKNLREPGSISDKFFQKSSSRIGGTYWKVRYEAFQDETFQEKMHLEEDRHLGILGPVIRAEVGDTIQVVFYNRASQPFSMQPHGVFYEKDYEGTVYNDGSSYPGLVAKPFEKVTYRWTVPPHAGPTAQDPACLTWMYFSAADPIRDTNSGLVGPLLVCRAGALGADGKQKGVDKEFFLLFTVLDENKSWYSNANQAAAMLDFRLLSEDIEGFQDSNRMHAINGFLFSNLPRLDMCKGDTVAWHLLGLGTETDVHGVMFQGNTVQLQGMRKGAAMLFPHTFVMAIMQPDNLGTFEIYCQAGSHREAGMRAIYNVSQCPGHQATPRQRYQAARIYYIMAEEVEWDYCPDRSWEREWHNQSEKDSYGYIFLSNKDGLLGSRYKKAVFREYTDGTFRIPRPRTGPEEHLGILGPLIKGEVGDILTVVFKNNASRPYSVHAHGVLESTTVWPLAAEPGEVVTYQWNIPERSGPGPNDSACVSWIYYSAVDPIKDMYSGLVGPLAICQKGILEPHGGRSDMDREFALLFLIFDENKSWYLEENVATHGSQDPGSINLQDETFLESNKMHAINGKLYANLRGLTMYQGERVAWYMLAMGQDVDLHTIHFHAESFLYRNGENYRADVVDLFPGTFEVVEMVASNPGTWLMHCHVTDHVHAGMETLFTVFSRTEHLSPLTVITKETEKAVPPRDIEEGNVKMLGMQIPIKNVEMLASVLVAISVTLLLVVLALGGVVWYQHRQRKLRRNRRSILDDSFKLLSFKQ
UniProt A6NHT5: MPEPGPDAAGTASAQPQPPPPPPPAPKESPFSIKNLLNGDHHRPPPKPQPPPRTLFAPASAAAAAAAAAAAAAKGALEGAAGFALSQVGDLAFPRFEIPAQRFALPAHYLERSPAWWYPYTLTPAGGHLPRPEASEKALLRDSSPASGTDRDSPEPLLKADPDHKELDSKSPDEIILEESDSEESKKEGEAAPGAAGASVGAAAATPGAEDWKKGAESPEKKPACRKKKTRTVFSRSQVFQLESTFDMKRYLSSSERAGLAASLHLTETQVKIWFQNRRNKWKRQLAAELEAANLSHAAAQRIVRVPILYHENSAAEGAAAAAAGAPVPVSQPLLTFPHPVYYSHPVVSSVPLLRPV
UniProt P17096: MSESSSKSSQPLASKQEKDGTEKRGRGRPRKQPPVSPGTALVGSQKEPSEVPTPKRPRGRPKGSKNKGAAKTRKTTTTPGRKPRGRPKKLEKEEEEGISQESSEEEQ
UniProt Q96JB3: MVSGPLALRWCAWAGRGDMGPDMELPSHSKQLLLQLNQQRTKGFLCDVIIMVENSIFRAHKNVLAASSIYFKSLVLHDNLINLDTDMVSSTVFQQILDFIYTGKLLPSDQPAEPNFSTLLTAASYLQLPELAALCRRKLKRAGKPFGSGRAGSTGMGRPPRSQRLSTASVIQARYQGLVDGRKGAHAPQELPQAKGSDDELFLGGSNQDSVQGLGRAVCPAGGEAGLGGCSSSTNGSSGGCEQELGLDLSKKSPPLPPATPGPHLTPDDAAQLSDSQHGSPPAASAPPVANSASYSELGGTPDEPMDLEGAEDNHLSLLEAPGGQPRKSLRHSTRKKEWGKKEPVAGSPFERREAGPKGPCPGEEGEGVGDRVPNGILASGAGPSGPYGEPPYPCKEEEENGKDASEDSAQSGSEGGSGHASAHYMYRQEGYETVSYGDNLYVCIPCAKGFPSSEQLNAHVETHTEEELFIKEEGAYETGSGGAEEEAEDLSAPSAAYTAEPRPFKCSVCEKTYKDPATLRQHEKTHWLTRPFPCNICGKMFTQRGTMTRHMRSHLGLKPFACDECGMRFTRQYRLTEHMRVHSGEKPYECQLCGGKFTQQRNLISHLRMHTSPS
UniProt Q96ED9: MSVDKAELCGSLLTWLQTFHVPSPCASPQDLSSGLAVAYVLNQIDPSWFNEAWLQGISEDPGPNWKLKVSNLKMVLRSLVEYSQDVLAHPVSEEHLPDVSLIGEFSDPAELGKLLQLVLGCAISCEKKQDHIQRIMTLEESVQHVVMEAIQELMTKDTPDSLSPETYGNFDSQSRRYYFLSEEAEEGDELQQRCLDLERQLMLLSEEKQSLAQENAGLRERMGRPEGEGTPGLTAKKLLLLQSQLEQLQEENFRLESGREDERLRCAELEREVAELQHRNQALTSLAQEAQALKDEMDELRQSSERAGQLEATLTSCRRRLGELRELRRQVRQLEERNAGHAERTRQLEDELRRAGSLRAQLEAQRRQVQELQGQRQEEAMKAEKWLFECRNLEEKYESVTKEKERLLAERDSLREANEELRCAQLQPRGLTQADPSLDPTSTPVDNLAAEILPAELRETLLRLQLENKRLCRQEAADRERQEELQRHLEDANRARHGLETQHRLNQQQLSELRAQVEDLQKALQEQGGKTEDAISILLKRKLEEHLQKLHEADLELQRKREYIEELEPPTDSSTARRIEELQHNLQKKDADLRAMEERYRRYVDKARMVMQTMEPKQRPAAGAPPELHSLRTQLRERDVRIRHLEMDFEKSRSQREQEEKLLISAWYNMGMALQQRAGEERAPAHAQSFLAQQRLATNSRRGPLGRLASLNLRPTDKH
UniProt Q86YV9: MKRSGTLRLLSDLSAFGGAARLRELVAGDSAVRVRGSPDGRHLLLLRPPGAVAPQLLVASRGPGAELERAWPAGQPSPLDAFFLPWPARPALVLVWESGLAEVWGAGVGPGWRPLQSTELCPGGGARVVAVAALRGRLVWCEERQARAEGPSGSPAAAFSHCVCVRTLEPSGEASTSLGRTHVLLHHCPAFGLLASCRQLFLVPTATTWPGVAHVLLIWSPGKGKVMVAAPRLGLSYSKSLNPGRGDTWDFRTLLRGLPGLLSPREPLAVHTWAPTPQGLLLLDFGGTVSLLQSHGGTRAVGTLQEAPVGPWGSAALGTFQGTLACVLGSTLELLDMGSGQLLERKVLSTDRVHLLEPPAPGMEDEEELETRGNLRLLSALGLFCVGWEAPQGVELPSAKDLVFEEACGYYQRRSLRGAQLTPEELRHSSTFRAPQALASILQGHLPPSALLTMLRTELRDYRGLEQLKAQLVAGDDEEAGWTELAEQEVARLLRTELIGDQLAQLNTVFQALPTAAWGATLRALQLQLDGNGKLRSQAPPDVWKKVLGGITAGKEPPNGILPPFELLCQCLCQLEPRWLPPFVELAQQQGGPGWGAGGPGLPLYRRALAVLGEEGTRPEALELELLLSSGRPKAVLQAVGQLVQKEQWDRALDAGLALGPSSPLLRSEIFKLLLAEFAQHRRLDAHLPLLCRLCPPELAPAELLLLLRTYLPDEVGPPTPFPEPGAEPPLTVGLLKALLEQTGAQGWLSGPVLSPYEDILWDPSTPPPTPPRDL
UniProt P15428: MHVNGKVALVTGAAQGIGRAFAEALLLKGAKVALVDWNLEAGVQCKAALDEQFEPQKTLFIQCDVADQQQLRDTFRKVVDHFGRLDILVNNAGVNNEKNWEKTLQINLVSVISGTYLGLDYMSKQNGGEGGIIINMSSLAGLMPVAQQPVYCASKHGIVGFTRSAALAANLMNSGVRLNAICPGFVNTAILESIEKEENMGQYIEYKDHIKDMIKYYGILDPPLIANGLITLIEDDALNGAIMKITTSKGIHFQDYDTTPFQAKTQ
UniProt Q9BW72: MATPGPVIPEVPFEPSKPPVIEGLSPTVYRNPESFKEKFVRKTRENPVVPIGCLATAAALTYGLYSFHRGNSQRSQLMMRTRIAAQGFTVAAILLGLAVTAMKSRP
UniProt P17483: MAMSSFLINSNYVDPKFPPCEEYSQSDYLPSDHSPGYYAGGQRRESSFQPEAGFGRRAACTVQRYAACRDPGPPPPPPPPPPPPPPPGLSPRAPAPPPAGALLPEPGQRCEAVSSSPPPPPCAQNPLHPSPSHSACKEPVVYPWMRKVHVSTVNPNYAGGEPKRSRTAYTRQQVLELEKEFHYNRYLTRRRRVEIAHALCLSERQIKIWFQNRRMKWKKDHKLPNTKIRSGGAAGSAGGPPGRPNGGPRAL
UniProt Q03933: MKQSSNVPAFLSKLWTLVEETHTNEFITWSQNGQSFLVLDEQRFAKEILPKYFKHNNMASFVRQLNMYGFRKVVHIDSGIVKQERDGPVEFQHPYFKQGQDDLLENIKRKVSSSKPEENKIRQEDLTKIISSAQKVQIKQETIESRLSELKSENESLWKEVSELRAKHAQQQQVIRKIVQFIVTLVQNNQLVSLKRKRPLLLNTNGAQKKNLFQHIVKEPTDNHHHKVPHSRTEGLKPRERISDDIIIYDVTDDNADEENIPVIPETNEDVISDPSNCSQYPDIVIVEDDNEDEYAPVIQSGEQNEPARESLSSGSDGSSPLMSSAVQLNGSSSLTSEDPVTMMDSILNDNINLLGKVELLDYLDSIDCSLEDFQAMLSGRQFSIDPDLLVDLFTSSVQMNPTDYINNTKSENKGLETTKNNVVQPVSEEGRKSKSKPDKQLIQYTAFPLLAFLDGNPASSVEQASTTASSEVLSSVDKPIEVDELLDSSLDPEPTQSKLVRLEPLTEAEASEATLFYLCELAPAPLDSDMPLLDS
UniProt P50135: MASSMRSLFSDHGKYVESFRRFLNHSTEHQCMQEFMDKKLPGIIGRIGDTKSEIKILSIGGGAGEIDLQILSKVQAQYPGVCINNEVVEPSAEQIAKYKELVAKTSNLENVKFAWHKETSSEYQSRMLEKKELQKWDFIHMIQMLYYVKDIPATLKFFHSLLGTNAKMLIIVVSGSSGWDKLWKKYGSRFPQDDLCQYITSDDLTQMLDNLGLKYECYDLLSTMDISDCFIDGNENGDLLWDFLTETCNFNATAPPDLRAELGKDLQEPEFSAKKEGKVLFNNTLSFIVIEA
UniProt Q15651: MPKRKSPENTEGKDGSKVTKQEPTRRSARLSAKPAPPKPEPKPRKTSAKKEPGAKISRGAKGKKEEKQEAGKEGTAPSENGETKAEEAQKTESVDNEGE
UniProt P04035: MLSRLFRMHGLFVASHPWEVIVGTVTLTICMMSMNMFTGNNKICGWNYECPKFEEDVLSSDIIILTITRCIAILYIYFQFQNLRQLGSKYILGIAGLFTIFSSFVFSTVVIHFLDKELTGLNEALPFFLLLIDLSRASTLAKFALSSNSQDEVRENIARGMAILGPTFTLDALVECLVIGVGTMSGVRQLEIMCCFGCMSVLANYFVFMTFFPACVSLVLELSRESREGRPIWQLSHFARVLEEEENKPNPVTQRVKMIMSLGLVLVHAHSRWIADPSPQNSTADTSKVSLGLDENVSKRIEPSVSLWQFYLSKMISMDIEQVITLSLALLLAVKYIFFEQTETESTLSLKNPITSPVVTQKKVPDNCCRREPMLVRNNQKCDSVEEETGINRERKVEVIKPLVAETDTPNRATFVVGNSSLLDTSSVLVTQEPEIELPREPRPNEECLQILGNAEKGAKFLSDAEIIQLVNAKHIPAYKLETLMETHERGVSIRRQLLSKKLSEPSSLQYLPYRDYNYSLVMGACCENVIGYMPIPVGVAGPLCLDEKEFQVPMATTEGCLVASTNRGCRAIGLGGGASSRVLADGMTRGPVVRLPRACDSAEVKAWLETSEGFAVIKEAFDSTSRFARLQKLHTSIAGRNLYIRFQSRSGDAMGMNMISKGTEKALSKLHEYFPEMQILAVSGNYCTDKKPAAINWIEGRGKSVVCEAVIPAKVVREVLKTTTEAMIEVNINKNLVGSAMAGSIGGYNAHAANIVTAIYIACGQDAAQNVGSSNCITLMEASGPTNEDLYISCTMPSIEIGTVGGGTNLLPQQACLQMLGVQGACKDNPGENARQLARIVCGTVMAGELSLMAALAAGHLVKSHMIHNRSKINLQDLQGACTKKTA

Here are results for 16 targets from the supplement of paper PMC10849652.

What all share (assay): log2 fold change, soluble protein after heating vs DMSO (PISA); higher = thermal stabilisation; K562 lysate, 10 uM; active = over 0.2 and 3.5 SD of the protein, either way, in both replicates (recomputed)
Compound in test [1]: NCC(=O)Nc1ccc(-n2nc(C(F)(F)F)cc2-c2ccc3c(ccc4ccccc43)c2)cc1
The procedure, abridged: (§1)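 Values give the log-two fold change in thermal stability against solvent controls, from duplicates. Crude K562 extract at 1 mg/mL protein, made by dounce homogenisation in PBS pH 7.4 with 1 mM MgCl2, was treated with 10 μM compound for 30 min. After 3 min heating across 48°C-58°C, aliquots were pooled, adjusted to 0.5% NP-40 at 4°C and centrifuged at 21,000xg for 90 min. The supernatant was measured by TMTpro 16plex LC-MS/MS with channel sums equalised.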

Compound in another test: O=C(CCCCCCC(=O)Nc1ccccc1)NO [vorinostat]
An outline of the steps: as §1

Compound in the next test: O=C(O)c1ccc2c(c1)nc(Nc1cccc(Cl)c1)c1ccncc12 [silmitasertib]
The procedure, abridged: as §1

Compound in test [2]: O=C1NC(=O)C(c2cnc3ccccn23)=C1c1cn2c3c(cc(F)cc13)CN(C(=O)N1CCCCC1)CC2
An outline of the steps:
as §1

Compound in a further test: c1cn2cc(-c3ccc4cn[nH]c4c3)nc(Nc3ccc(N4CCOCC4)cc3)c2n1 [entospletinib]
The procedure, abridged: as §1

Take HEPH isoform 3 (UniProt Q9BQS7): the log2 fold change in test [1] was inactive: -0.005; in the test with vorinostat, inactive: 0.077; with silmitasertib it was inactive: 0.025; in test [2], inactive: -0.002; with entospletinib, inactive: -0.069.
Turning to HMX3 (UniProt A6NHT5), the log2 fold change in the test with vorinostat was inactive: -0.257; with silmitasertib, inactive: -0.125.
On to HMGA1 isoform 2 (UniProt P17096), for which the log2 fold change in the test with vorinostat was inactive: 0.205; with silmitasertib, inactive: -0.047; in test [2], inactive: 0.128.
On to HIC2 isoform 2 (UniProt Q96JB3), for which the log2 fold change in test [2] was inactive: -0.005.
Turning to HOOK2 (UniProt Q96ED9), the log2 fold change in the test with vorinostat is inactive: -0.008; with silmitasertib, inactive: -0.068.
Consider HPS6 (UniProt Q86YV9), for which the log2 fold change in test [2] is inactive: 0.087; with entospletinib, inactive: -0.021.
On to HMGN5 (UniProt Q5JSK9), for which, in the test with entospletinib, the log2 fold change was inactive: -0.187.
Regarding HINFP (UniProt Q9BQA5), the log2 fold change in test [2] is inactive: 0.077.
HPGD (UniProt P15428): in the test with entospletinib, the log2 fold change is inactive: -0.113.
Take HIGD2A (UniProt Q9BW72): the log2 fold change in test [2] is inactive: 0.095.
In the case of HOXB4 (UniProt P17483), the log2 fold change in test [1] was inactive: 0.068; in test [2], inactive: -0.014; with entospletinib, inactive: -0.053.
As for HSF2 (UniProt Q03933), the log2 fold change was inactive: 0.028 in test [1] and inactive: 0.005 with entospletinib.
Turning to HNMT (UniProt P50135), the log2 fold change is inactive: -0.09 with vorinostat, inactive: 0.122 with silmitasertib and inactive: 0.059 with entospletinib.
HMGN3 (UniProt Q15651): the log2 fold change with vorinostat was inactive: 0.143; in the test with silmitasertib, inactive: -0.143; in test [2] it was inactive: 0.036.
For the target HMGCR isoform 3 (UniProt P04035), the log2 fold change was inactive: -0.019 in test [2] and inactive: -0.122 with entospletinib.
Turning to HSP90AA2P (UniProt Q14568), the log2 fold change in test [2] was inactive: -0.041; with entospletinib, inactive: -0.132.
